No constants are given. Whether binding was seen depends on the method and setting. In cells and extracts the contact can be indirect. These calls come from enrichment with a bait or labelling near it, and not all partners need be listed.

By UniProt entry, the sequences of proteins in these tests, tags left out.
UniProt Q12888: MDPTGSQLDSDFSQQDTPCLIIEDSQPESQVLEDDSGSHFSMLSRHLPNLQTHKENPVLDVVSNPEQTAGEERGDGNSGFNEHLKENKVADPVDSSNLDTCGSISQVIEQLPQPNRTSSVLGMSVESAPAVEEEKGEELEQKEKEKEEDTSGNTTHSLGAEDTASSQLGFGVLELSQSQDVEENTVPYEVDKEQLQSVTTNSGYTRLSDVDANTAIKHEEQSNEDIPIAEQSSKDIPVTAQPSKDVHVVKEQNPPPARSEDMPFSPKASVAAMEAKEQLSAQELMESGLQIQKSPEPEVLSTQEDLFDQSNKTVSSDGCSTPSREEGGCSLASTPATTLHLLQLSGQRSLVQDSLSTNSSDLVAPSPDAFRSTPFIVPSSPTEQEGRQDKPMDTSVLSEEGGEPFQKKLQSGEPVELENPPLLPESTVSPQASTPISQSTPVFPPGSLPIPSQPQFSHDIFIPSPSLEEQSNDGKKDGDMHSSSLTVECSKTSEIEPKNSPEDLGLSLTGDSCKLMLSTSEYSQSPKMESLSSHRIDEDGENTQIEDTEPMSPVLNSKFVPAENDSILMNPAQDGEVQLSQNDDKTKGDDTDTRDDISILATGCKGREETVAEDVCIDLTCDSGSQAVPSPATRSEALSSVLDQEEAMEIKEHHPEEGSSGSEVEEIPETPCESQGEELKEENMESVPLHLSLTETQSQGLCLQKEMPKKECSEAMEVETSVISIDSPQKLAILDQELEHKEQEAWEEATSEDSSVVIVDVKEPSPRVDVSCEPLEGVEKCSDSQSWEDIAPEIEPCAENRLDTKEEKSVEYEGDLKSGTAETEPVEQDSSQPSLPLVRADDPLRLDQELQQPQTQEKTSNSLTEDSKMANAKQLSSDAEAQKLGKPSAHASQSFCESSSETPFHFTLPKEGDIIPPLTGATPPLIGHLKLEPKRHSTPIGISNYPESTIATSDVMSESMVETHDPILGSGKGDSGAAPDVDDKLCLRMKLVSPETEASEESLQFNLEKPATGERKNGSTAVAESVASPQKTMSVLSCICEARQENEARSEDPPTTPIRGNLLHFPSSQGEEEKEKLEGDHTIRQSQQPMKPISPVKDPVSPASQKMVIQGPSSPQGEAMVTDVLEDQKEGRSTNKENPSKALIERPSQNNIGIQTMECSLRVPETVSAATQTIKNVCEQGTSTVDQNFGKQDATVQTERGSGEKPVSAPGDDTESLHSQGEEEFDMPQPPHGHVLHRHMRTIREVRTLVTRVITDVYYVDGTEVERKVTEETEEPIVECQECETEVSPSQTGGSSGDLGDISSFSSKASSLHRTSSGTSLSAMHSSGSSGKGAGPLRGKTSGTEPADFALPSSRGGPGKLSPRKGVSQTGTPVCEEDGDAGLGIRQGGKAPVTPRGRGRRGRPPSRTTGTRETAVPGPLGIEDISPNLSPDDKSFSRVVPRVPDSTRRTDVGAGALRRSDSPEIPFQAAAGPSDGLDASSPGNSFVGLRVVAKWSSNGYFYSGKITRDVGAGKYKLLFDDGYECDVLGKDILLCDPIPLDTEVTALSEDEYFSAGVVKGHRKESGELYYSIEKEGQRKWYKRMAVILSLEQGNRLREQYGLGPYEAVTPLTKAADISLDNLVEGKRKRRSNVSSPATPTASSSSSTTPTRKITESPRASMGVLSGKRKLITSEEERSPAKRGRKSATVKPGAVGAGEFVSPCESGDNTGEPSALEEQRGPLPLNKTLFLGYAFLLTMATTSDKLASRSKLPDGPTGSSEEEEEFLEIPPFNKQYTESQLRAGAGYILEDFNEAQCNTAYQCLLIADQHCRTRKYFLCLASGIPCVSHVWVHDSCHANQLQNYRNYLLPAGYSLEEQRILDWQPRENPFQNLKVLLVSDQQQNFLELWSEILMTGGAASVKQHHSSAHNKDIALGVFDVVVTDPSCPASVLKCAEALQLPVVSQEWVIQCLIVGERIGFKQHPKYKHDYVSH
UniProt P78527: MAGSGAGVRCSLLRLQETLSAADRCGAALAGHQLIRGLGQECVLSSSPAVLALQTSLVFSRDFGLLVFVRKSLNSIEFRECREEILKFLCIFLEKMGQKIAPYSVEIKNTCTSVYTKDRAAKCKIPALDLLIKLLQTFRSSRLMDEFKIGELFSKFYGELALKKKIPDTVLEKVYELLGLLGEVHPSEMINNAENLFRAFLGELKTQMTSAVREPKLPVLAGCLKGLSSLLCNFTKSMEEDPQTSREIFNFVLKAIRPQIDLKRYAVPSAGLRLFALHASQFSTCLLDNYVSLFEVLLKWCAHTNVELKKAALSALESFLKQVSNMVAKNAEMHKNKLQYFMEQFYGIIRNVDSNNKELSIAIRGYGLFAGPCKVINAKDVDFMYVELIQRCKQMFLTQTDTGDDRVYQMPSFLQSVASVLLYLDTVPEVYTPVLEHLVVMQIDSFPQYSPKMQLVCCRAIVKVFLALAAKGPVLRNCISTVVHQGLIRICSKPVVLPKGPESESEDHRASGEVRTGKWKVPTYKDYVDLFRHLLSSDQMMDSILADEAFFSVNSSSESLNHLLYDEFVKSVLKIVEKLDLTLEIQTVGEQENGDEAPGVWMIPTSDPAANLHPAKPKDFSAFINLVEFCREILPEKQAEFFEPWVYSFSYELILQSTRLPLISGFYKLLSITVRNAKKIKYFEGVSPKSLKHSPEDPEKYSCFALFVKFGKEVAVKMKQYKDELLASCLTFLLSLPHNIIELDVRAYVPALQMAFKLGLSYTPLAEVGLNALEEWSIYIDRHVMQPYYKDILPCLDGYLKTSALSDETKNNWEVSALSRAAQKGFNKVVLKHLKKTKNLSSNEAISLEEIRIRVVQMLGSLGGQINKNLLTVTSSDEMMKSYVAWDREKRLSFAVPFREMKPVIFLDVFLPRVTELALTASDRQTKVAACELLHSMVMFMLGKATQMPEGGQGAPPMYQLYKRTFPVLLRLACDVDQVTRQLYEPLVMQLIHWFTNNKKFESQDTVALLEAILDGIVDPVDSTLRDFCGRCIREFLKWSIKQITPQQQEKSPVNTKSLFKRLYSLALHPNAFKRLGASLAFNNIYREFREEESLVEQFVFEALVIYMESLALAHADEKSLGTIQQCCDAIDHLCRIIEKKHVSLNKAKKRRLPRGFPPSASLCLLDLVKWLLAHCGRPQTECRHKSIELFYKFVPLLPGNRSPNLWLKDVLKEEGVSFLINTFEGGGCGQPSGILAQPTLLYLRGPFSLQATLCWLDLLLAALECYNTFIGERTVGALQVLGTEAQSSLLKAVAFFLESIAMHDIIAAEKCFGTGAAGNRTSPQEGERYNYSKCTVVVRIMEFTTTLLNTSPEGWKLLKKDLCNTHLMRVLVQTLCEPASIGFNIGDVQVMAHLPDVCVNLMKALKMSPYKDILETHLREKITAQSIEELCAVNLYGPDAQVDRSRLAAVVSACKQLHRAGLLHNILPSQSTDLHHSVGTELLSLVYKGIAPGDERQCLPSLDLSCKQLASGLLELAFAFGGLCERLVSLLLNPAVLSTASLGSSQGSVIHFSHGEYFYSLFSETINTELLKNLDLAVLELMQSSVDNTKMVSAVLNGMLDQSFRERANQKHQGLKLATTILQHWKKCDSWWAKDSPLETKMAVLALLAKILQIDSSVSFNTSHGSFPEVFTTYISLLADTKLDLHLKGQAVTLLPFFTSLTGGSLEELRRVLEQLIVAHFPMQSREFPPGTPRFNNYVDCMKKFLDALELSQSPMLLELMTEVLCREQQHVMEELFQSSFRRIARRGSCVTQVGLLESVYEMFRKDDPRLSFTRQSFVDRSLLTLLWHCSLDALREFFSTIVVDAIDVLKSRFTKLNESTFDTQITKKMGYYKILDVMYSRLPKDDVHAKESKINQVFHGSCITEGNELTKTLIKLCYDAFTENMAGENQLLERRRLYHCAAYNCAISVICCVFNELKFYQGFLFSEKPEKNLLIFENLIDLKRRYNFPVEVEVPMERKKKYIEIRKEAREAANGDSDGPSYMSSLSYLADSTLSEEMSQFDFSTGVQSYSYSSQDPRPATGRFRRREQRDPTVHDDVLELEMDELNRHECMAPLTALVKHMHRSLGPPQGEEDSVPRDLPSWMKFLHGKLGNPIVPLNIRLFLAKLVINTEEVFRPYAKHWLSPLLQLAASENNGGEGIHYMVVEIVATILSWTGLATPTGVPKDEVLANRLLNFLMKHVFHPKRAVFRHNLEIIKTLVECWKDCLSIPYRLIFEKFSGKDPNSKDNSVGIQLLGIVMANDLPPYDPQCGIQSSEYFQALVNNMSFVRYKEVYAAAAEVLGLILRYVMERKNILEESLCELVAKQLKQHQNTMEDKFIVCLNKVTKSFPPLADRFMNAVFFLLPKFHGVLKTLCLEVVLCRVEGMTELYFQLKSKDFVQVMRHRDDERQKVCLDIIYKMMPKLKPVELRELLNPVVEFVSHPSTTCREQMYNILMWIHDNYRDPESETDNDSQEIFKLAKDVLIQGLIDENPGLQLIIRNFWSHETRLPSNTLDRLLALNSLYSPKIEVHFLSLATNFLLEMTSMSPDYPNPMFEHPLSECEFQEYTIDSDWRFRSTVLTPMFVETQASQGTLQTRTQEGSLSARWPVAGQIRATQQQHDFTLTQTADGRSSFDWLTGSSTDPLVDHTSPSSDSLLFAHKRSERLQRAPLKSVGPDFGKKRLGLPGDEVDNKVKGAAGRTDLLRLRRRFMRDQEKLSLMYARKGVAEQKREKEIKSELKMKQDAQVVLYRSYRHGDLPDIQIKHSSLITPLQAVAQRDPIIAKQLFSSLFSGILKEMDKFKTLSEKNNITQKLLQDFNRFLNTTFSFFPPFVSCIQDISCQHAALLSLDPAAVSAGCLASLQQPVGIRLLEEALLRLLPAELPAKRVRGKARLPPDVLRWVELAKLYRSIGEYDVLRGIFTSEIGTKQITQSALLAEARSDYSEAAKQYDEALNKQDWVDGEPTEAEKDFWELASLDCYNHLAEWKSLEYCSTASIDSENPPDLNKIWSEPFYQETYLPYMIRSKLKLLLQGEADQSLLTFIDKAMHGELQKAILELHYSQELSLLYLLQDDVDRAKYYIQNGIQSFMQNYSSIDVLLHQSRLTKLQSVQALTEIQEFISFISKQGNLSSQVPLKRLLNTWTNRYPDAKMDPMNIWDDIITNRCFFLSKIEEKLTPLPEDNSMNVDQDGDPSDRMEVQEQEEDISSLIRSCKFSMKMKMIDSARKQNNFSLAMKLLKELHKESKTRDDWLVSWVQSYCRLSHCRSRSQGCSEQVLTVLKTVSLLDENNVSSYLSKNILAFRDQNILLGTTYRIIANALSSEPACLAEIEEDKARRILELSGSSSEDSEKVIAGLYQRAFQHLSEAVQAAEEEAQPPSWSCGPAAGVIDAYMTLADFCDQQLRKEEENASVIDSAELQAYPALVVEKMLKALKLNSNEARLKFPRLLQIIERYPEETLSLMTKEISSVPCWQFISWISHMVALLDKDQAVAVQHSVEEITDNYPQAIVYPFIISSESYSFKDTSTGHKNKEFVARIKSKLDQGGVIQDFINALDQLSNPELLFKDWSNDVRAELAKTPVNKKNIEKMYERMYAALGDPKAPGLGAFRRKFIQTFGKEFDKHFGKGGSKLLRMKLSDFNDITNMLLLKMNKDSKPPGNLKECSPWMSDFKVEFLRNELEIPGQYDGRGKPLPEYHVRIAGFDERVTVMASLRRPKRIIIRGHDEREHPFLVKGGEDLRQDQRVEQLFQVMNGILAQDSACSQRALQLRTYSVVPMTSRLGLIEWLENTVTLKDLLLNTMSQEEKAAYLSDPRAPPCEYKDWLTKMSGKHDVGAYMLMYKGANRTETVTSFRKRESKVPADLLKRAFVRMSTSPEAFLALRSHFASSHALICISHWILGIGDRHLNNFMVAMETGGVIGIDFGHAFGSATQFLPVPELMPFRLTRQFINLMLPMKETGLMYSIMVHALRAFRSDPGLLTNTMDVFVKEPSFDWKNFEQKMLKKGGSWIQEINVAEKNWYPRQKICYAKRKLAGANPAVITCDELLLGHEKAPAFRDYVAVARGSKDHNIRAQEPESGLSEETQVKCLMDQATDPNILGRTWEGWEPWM
UniProt P13861: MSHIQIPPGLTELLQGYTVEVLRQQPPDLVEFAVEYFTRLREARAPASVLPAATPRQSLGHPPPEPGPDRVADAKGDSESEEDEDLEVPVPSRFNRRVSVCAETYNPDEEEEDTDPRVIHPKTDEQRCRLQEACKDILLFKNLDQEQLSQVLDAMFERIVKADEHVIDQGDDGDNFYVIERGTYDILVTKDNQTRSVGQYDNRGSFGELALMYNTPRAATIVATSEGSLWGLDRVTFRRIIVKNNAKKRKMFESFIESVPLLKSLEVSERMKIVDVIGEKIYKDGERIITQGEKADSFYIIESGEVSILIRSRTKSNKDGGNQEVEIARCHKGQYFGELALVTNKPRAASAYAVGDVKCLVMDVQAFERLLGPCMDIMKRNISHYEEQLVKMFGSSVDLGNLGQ

This test addresses 53BP1 (human (endogenous in SV40-transformed fibroblasts)) (UniProt Q12888). Kind of test: affinity purification with mass spectrometry.
Take “DNA-PKcs (from UniProt P78527 1-4128) (enzyme)”: the binding result is “binds”.

In the case of “cAMP-dependent protein kinase regulatory type II-β subunit (from UniProt P31323 1-418)”, the binding result is on record as “binds”.

As for “cAMP-dependent protein kinase regulatory type II-α subunit (from UniProt P13861 1-404)”, the binding entry is on record as “binds”.

These data come from publication doi:10.1101/2024.08.29.610313.
